Measured values as given in US5006448A, “Photographic material and process” (Eastman Kodak Company, priority 1989, dated 1991).

How the values were obtained:
[1] = Example 1 two-layer color photographic element: causer gamma, acutance and interimage effect of DIR compound; conditions: Table I; for CMT16mm acutance: acutance of layer 1, spatial frequencies 15 to 80 cycle per mm; for Gamma "causer" / Gamma "receiver": interimage effect, Wratten 12 (minus blue) exposure; for Gamma "causer": layer 1, Wratten 99 (green) exposure, DIR coverage as coated (mg/m^2)
Protocol: (§1) Eight color photographic elements (coatings numbered 1-8 in Table I) were prepared having the following schematic layer structure and using silver bromoiodide emulsions containing 6.4 mole % iodide (numerical values denote coating coverages in mg/m^2 and the silver halide values are for equivalent weights of silver):
The dye-forming couplers IC-1 and IC-2 were each dispersed in half their weight of di-n-butyl phthalate, the dye forming coupler IC-3 was dispersed in half its weight of tri-cresyl phosphate and the DIR compounds were each dispersed in twice their weight of diethyl lauramide.
(§2) For evaluation of the DIR coupler effect on "causer" layer gamma and sharpness, the samples were exposed through a graduated-density test object and a Kodak Wratten 99 (green) filter. This exposed photographic layer 1.
(§3) For interimage evaluation, the samples were exposed through a graduated-density test object and a Kodak Wratten 12 (minus blue) filter. This exposed both layers 1 and 2.
(§4) Sharpness was evaluated by calculating CMT acutance values for l6mm film or by calculating AMT acutance values for a Disc type film or for a 35 mm film.
Calculations employed the following formulas in which the cascaded area under the system modulation transfer curve is shown in equation (21.104) on page 629 of The Theory of the Photographic Process, 4th edition, 1977, edited by T. H. James:
(§5) where M=11.8 for a l6mm film, and M'=3.8 for a 35 mm film or 11.5 for a DISC type film.
The photographic materials were then processed at 38° C. as follows:
The color developer composition was:
The oxidized color developing agent generated by development of exposed silver reacts with adjacent dye image-forming compounds and DIR compound, if present, to form dyes and to release inhibitor (or inhibitor precursor) in photographic layer 1. The development inhibiting effects of inhibitor released from the DIR compound were assessed by monitoring the gamma of photographic layer 1. The sharpness effects of the inhibitor released from the DIR compound were assessed by monitoring the acutance of photographic layer 1. Higher acutance values indicate greater sharpness in the processed film.
The interimage effects of the inhibitor released from the DIR compound were assessed by monitoring the ratio of the gammas of photographic layer 1 (causer of interimage effect) and photographic layer 2 (receiver of interimage effect). The larger the gamma ratio, the larger the interimage effect (the degree of color correction) in the film.

[2] = Example 3 photographic element with IC-2 in layer 1 and IC-3 in layer 2; conditions: Table III; for Gamma "causer" / Gamma "receiver": interimage effect; for Disc sys AMT acutance: spatial frequencies 2. to 30 cycles per mm
Protocol: as §2, §3, §4, §5
Three additional photographic elements (Coating Nos. 12-14 of Table III) were prepared in a manner similar to that described in Example 1 except that different dye-forming couplers were used. In this Example, photographic layer 1 incorporated IC-2 at 1300 mg/m^2 and photographic layer 2 incorporated IC-3 at 650 mg/m^2. These elements were exposed and processed as described in Example 1.

[3] = Example 5 photographic element: causer gamma Gc; conditions: Table V discussion
Protocol: as §1, with “Four additional” for “Eight color”, “(a control coating 15 and test coatings (16-18)” for “(coatings numbered 1-8 in Table I)”
Film strips were exposed through a graduated-density test object and a Kodak Wratten 12 (minus blue) filter and then processed as in Example 1.

| Compound | CMT16mm acutance [1] | Gamma "causer" / Gamma "receiver" [1] | Gamma "causer" [1] | Gamma "causer" [2] | Gamma "causer" / Gamma "receiver" [2] | Disc sys AMT acutance [2] | suppression of "causer" gamma (in words) [3] |
| --- | --- | --- | --- | --- | --- | --- | --- |
| CCCCCCCCCCCCCCOc1ccccc1NC(=O)c1cc(Sc2nnnn2-c2ccccc2)c2ccccc2c1O [DIR Compound A] | 96.2 | 0.77 | 0.57 |  |  |  |  |
| CCCCCCCCOc1ccc(-c2nnn(C(C(=O)Nc3cc(NC(=O)CCCCOc4ccc(C(C)(C)CC)cc4C(C)(C)CC)ccc3Cl)C(=O)C(C)(C)C)n2)cc1 (stereo not shown) [DIR Compound G] |  |  |  | 1.54 | 1.02 | 85.2 |  |
| CCCCSCCCOc1ccc(-c2nnn(C(C(=O)Nc3cc(NC(=O)CCCCOc4ccc(C(C)(C)CC)cc4C(C)(C)CC)ccc3Cl)C(=O)C(C)(C)C)n2)cc1 [Compound D-104] |  |  |  | 1.05 | 0.94 | 87.0 |  |
| CCCCCCCCCCCCCCOc1ccccc1NC(=O)c1cc(Oc2ccc([N+](=O)[O-])cc2CN(C(=O)Sc2nnnn2-c2ccccc2)C(C)C)c2ccccc2c1O [DIR Compound D] | 99.9 | 1.41 | 0.57 |  |  |  |  |
| CCCCCCCCCCCCOc1ccc(C(=O)C(C(=O)Nc2cc(C(F)(F)F)ccc2Cl)n2nnc(CCCCCCCC)n2)cc1 (stereo not shown) [DIR Compound H] |  |  |  |  |  |  | ineffective |
| CCCCCCCCCCCCCCOc1ccccc1NC(=O)c1cc(Sc2nnnn2-c2ccc(OCC)cc2)c2ccccc2c1O [DIR Compound B] | 96.2 | 0.52 | 0.61 |  |  |  |  |
| CCCCCCCCCCCCCCOc1ccccc1NC(=O)c1cc(Oc2ccc([N+](=O)[O-])cc2CN(C(=O)Sc2nnnn2-c2ccc(OCC)cc2)C(C)C)c2ccccc2c1O [DIR Compound E] | 98.4 | 0.83 | 0.59 |  |  |  |  |
| CCCCCCCCCCCCCCOc1ccccc1NC(=O)c1cc(Oc2ccc([N+](=O)[O-])cc2CN(C(=O)Sc2nnnn2-c2ccccc2SC)C(C)C)c2ccccc2c1O [Compound D-2] | 100.5 | 1.04 | 0.55 |  |  |  |  |
| CCCCCCCCCCCCCCOc1ccccc1NC(=O)c1cc(Sc2nnnn2-c2ccccc2SC)c2ccccc2c1O [Compound D-1] | 97.4 | 0.55 | 0.44 |  |  |  |  |
| CCCCCCCCCCCCCCOc1ccccc1NC(=O)c1cc(Sc2nnnn2Cc2ccc(OC)cc2)c2ccccc2c1O [DIR Compound C] | 95.2 | 0.41 | 0.47 |  |  |  |  |
